Measurements reported in PubChem BioAssay AID504791 (Drosophila RNAi Screening Center, 2011)
The deposit covers about 23,000 reagents; shown is a random part of those that have a named target and a result. Over the whole deposit, 199 (0.86%) were called active. 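Plate-scaled ratios behind the calls are not deposited; printed light signals are raw; many rows marked increased or decreased are still called inactive.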 A plus sign joins genes that one reagent is predicted to hit.

- Aim: 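Genes of the fly required for silencing by miRNA, siRNA or endo-siRNA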 (primary screen)
- System: Drosophila S2-derived reporter cells
- Reagents: long dsRNA against Drosophila genes, about 150-250 ng dsRNA per well (siRNA assay); about 80-120 ng (miRNA assay)
- Time to read-out: about 5 days (siRNA assay); about 4 days (miRNA assay)
- Conditions: copper sulfate induction of reporters: 25 µM (siRNA assay); 200 mM stated (miRNA assay), 1-2 days before reading
- Measurement: 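Dual luciferase assay: Renilla to firefly signal ratio in each well, scaled to the mean ratio of its plate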
- Direction: siRNA reporter hit score: higher = 3 marks a strong hit with raised ratio; -3 a strong hit with lowered ratio
- Units: stable assay Renilla, run 1 in luminescence; stable assay firefly, run 1 in luminescence
- Active means: 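First-pass picks had plate-scaled ratios over 1.5 for the siRNA assay, over 1.6 for the miRNA assay, or under 0.6; two distinct dsRNAs had to score alike on retest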

{"gene knocked down": "Vps13B (Vacuolar protein sorting 13B)", "amplicon": "DRSC15060", "stable assay Renilla, run 1": 5728, "stable assay firefly, run 1": 3.55e5, "Call": "inactive"}
{"gene knocked down": "CG8155", "amplicon": "DRSC07084", "stable assay Renilla, run 1": 12023, "stable assay firefly, run 1": 5.17e5, "Call": "inactive"}
{"gene knocked down": "CG8155", "amplicon": "DRSC21543", "stable assay Renilla, run 1": 8659, "stable assay firefly, run 1": 4.47e5, "Call": "inactive"}
{"gene knocked down": "CG9541", "amplicon": "DRSC03257", "stable assay Renilla, run 1": 6751, "stable assay firefly, run 1": 3.20e5, "Call": "inactive"}
{"gene knocked down": "CG17751", "amplicon": "DRSC15261", "stable assay Renilla, run 1": 6778, "stable assay firefly, run 1": 3.81e5, "Call": "inactive"}
{"gene knocked down": "CG17751", "amplicon": "DRSC22837", "stable assay Renilla, run 1": 5352, "stable assay firefly, run 1": 4.35e5, "Call": "inactive"}
{"gene knocked down": "CG14246", "amplicon": "DRSC14741", "stable assay Renilla, run 1": 3323, "stable assay firefly, run 1": 3.58e5, "Call": "inactive"}
{"gene knocked down": "aust (australin)", "amplicon": "DRSC02558", "stable assay Renilla, run 1": 8654, "stable assay firefly, run 1": 4.13e5, "Call": "inactive"}
{"gene knocked down": "CG2901", "amplicon": "DRSC18239", "stable assay Renilla, run 1": 6574, "stable assay firefly, run 1": 5.75e5, "Call": "inactive"}
{"gene knocked down": "Ho (Heme oxygenase)", "amplicon": "DRSC14939", "stable assay Renilla, run 1": 8342, "stable assay firefly, run 1": 4.90e5, "Call": "inactive"}
{"gene knocked down": "CG42808 + CG42807", "amplicon": "DRSC06370", "stable assay Renilla, run 1": 7199, "stable assay firefly, run 1": 3.51e5, "Call": "inactive"}
{"gene knocked down": "CG42808 + CG42807", "amplicon": "DRSC06966", "stable assay Renilla, run 1": 6427, "stable assay firefly, run 1": 3.08e5, "Call": "inactive"}
{"gene knocked down": "CG32751", "amplicon": "DRSC21770", "stable assay Renilla, run 1": 8850, "stable assay firefly, run 1": 5.23e5, "Call": "inactive"}
{"gene knocked down": "CG34347", "amplicon": "DRSC14047", "stable assay Renilla, run 1": 5996, "stable assay firefly, run 1": 3.20e5, "Call": "inactive"}
{"gene knocked down": "CG34347", "amplicon": "DRSC14305", "stable assay Renilla, run 1": 6954, "stable assay firefly, run 1": 3.68e5, "Call": "inactive"}
{"gene knocked down": "CG34347", "amplicon": "DRSC15104", "stable assay Renilla, run 1": 6459, "stable assay firefly, run 1": 3.58e5, "Call": "inactive"}
{"gene knocked down": "CG34347", "amplicon": "DRSC15105", "miRNA reporter change": "reporter ratio raised past the hit cutoff", "stable assay Renilla, run 1": 2875, "stable assay firefly, run 1": 2.27e5, "Call": "inactive"}
{"gene knocked down": "CG34347", "amplicon": "DRSC23044", "stable assay Renilla, run 1": 5983, "stable assay firefly, run 1": 3.45e5, "Call": "inactive"}
{"gene knocked down": "tank", "amplicon": "DRSC00461", "stable assay Renilla, run 1": 8687, "stable assay firefly, run 1": 5.15e5, "Call": "inactive"}
{"gene knocked down": "CG2794", "amplicon": "DRSC00534", "stable assay Renilla, run 1": 7933, "stable assay firefly, run 1": 6.04e5, "Call": "inactive"}
{"gene knocked down": "Mics1 (Mitochondrial morphology and cristae structure 1)", "amplicon": "DRSC12537", "stable assay Renilla, run 1": 6491, "stable assay firefly, run 1": 3.75e5, "Call": "inactive"}
{"gene knocked down": "SoxN (SoxNeuro)", "amplicon": "DRSC03440", "stable assay Renilla, run 1": 5363, "stable assay firefly, run 1": 3.65e5, "Call": "inactive"}
{"gene knocked down": "SoxN (SoxNeuro)", "amplicon": "DRSC21779", "stable assay Renilla, run 1": 6340, "stable assay firefly, run 1": 4.08e5, "Call": "inactive"}
{"gene knocked down": "CG42717", "amplicon": "DRSC09411", "stable assay Renilla, run 1": 4247, "stable assay firefly, run 1": 3.52e5, "Call": "inactive"}
{"gene knocked down": "CG1161", "amplicon": "DRSC12180", "siRNA reporter hit score": 3, "stable assay Renilla, run 1": 5542, "stable assay firefly, run 1": 3.03e5, "Call": "inactive"}
{"gene knocked down": "CG18754", "amplicon": "DRSC15387", "stable assay Renilla, run 1": 7662, "stable assay firefly, run 1": 5.46e5, "Call": "inactive"}
{"gene knocked down": "Cp7Fb (Chorion protein b at 7F)", "amplicon": "DRSC18034", "stable assay Renilla, run 1": 5067, "stable assay firefly, run 1": 2.65e5, "Call": "inactive"}
{"gene knocked down": "cindr (CIN85 and CD2AP related)", "amplicon": "DRSC14126", "stable assay Renilla, run 1": 7262, "stable assay firefly, run 1": 4.02e5, "Call": "inactive"}
{"gene knocked down": "cindr (CIN85 and CD2AP related)", "amplicon": "DRSC14298", "stable assay Renilla, run 1": 5519, "stable assay firefly, run 1": 2.63e5, "Call": "inactive"}
